Assay results as given in publication PMC11347313.
Results are given in words; binding and its absence hold for the method and conditions named. Binding seen in cells or lysates may run through a third protein. Some entries that bind do so weakly or less than the wild type. Values belong to the binder of their own block, whether it stands above or below them.

Chains of the proteins cited; added tags and fusions are not shown.
UniProt Q92769: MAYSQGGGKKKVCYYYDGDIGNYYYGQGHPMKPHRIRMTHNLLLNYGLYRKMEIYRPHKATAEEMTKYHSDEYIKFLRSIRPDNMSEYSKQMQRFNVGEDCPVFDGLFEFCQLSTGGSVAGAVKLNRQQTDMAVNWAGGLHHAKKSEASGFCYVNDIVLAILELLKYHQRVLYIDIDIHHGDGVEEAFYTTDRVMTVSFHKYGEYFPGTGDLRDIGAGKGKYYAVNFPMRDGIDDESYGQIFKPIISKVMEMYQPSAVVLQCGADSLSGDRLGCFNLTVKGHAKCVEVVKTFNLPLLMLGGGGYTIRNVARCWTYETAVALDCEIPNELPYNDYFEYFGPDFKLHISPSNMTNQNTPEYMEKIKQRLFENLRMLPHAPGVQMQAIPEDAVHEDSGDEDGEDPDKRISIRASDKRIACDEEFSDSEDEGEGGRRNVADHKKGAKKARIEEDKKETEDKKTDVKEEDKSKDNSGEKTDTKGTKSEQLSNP
UniProt Q13547: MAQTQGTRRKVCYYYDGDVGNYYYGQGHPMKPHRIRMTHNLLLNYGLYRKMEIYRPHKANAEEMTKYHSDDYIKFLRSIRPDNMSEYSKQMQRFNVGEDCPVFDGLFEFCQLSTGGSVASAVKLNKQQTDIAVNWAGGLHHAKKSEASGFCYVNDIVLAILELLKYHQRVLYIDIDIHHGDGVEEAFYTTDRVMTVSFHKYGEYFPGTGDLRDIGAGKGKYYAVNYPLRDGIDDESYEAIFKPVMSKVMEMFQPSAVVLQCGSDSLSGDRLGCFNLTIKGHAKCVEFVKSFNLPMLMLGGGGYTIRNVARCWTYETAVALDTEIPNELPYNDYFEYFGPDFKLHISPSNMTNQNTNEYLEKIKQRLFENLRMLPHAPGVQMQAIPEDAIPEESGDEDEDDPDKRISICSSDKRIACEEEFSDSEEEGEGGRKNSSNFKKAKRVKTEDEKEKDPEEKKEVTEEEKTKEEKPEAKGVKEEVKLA

What was measured:
[1] = target: T1, ZEB1 (zinc finger E-box binding homeobox 1) (human (endogenous in SW480 and HCT116)), P37275; experiment: co-IP; whole-cell lysates of SW480 and HCT116 cells, coimmunoprecipitation, Western blotting with antibodies against NuRD components; conditions: remark: other sources report otherwise
T1 chain: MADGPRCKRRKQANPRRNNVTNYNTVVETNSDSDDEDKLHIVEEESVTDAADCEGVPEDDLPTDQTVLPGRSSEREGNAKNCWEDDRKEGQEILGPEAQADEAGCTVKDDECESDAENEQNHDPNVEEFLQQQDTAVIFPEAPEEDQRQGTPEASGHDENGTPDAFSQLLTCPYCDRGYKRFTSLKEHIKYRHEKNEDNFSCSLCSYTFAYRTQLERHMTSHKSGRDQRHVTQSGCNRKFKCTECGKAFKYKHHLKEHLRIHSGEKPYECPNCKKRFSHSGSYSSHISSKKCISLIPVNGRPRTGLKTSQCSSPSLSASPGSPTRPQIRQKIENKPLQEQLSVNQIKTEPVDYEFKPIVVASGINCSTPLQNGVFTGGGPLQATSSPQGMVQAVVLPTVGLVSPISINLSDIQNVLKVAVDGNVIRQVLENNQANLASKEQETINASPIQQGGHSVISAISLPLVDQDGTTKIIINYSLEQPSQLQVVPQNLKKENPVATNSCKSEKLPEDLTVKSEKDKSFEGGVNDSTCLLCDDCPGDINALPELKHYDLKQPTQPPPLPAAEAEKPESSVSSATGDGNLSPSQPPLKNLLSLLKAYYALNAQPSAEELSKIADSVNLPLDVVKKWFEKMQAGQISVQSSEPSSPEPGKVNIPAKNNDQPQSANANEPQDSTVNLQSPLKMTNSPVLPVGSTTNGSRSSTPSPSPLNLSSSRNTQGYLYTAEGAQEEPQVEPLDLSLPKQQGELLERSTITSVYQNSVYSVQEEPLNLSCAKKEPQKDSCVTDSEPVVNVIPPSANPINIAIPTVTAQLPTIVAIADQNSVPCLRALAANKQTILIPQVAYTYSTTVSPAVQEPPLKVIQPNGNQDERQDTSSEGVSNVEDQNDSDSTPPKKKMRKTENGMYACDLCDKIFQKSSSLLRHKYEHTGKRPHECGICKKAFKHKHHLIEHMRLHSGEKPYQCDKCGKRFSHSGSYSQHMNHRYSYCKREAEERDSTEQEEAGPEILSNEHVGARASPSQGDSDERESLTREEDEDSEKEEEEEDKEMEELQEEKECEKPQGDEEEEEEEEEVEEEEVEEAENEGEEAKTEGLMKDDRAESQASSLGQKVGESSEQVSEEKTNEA

[2] = target: GST-fused HDAC2 (UniProt Q92769); experiment: pull-down; GST fusion proteins from E. coli BL21 incubated with 5-8 uL in vitro transcribed/translated ZEB1 in binding buffer, 37 °C, 30 min, five washes, Western blot; only the target purified
[3] = target: GST-fused HDAC1 (UniProt Q13547); experiment: as above

binding [1]: no binding
B1: MTA3, Q9BTC8 1-594 (protein)
chain: MAANMYRVGDYVYFENSSSNPYLIRRIEELNKTASGNVEAKVVCFYRRRDISNTLIMLADKHAKEIEEESETTVEADLTDKQKHQLKHRELFLSRQYESLPATHIRGKCSVALLNETESVLSYLDKEDTFFYSLVYDPSLKTLLADKGEIRVGPRYQADIPEMLLEGESDEREQSKLEVKVWDPNSPLTDRQIDQFLVVARAVGTFARALDCSSSVRQPSLHMSAAAASRDITLFHAMDTLYRHSYDLSSAISVLVPLGGPVLCRDEMEEWSASEASLFEEALEKYGKDFNDIRQDFLPWKSLTSIIEYYYMWKTTDRYVQQKRLKAAEAESKLKQVYIPTYSKPNPNQISTSNGKPGAVNGAVGTTFQPQNPLLGRACESCYATQSHQWYSWGPPNMQCRLCAICWLYWKKYGGLKMPTQSEEEKLSPSPTTEDPRVRSHVSRQAMQGMPVRNTGSPKSAVKTRQAFFLHTTYFTKFARQVCKNTLRLRQAARRPFVAINYAAIRAEYADRHAELSGSPLKSKSTRKPLACIIGYLEIHPAKKPNVIRSTPSLQTPTTKRMLTTPNHTSLSILGKRNYSHHNGLDELTCCVSD

binding [2]: binds
binding [3]: binds
B2: in vitro transcribed/translated ZEB1 (protein, UniProt P37275 1-1124)
chain: T1 chain
